# No constants are given. Whether binding was seen depends on the method and setting. Binding seen in cells or lysates may run through a third protein. A result given as binding can be weak or reduced; the word gives no strength. Where a sequence is shown, tags or fusion partners need not be part of it.
# Molecular target: RrTTG1, pXY106 (nYFP) fusion (Rosa roxburghii)
# Assay: split reporter; BiFC: cYFP (pXY105) and nYFP (pXY106) fusions transiently expressed in Nicotiana benthamiana leaves via Agrobacterium EHA105 mixed 1:1; YFP fluorescence by confocal microscopy after 48 h
row,Binder,binding
1,"AtGL3, pXY105 (cYFP) fusion (protein, UniProt Q9FN69 1-637) MATGQNRTTVPENLKKHLAVSVRNIQWSYGIFWSVSASQSGVLEWGDGYYNGDIKTRKTIQASEIKADQLGLRRSEQLSELYESLSVAESSSSGVAAGSQVTRRASAAALSPEDLADTEWYYLVCMSFVFNIGEGMPGRTFANGEPIWLCNAHTADSKVFSRSLLAKSAAVKTVVCFPFLGGVVEIGTTEHITEDMNVIQCVKTSFLEAPDPYATILPARSDYHIDNVLDPQQILGDEIYAPMFSTEPFPTASPSRTTNGFDQEHEQVADDHDSFMTERITGGASQVQSWQLMDDELSNCVHQSLNSSDCVSQTFVEGAAGRVAYGARKSRVQRLGQIQEQQRNVKTLSFDPRNDDVHYQSVISTIFKTNHQLILGPQFRNCDKQSSFTRWKKSSSSSSGTATVTAPSQGMLKKIIFDVPRVHQKEKLMLDSPEARDETGNHAVLEKKRREKLNERFMTLRKIIPSINKIDKVSILDDTIEYLQELERRVQELESCRESTDTETRGTMTMKRKKPCDAGERTSANCANNETGNGKKVSVNNVGEAEPADTGFTGLTDNLRIGSFGNEVVIELRCAWREGVLLEIMDVISDLHLDSHSVQSSTGDGLLCLTVNCKHKGSKIATPGMIKEALQRVAWIC",binds
2,"AtEGL3, pXY105 (cYFP) fusion (protein, UniProt Q9CAD0 1-596) MATGENRTVPDNLKKQLAVSVRNIQWSYGIFWSVSASQPGVLEWGDGYYNGDIKTRKTIQAAEVKIDQLGLERSEQLRELYESLSLAESSASGSSQVTRRASAAALSPEDLTDTEWYYLVCMSFVFNIGEGIPGGALSNGEPIWLCNAETADSKVFTRSLLAKSASLQTVVCFPFLGGVLEIGTTEHIKEDMNVIQSVKTLFLEAPPYTTISTRSDYQEIFDPLSDDKYTPVFITEAFPTTSTSGFEQEPEDHDSFINDGGASQVQSWQFVGEEISNCIHQSLNSSDCVSQTFVGTTGRLACDPRKSRIQRLGQIQEQSNHVNMDDDVHYQGVISTIFKTTHQLILGPQFQNFDKRSSFTRWKRSSSVKTLGEKSQKMIKKILFEVPLMNKKEELLPDTPEETGNHALSEKKRREKLNERFMTLRSIIPSISKIDKVSILDDTIEYLQDLQKRVQELESCRESADTETRITMMKRKKPDDEEERASANCMNSKRKGSDVNVGEDEPADIGYAGLTDNLRISSLGNEVVIELRCAWREGILLEIMDVISDLNLDSHSVQSSTGDGLLCLTVNCKHKGTKIATTGMIQEALQRVAWIC",binds
